Reference: PubChem BioAssay AID1671195 (Yale University, 2021)

Test: 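Regulators of LDL receptor activity judged by labelled LDL uptake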 (primary screen)
System: human Huh7 hepatoma cells
Reagent: siRNA pool against human genes, 18 nM
Time to read-out: about 2 to 2.5 days of knockdown, then 8 h LDL uptake
Challenge: DiI-labelled LDL at 30 µg/ml for 8 h, in lipoprotein-deficient serum medium
Read-out: 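Fluorescent LDL signal imaged in cells, scaled to the plate median, robust z-score for each replicate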
Direction: robust z-score: higher = more LDL uptake after knockdown
Active means: 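Active when two or more replicates show a robust z-score above 2 or below -2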
Here is an unselected part of about 22,000 reagents. About 1,510 of all reagents (6.9%) were called active. 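Active includes knockdowns raising or lowering LDL uptake; positive z-scores mean more uptake, negative mean less.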 Unmarked entries are inactive.

gene | PubChem SID | robust z-score, replicate 1 | robust z-score, replicate 2 | robust z-score, replicate 3
CCDC47 | SID442890621 | 0.851 | 0.751 | -0.431
DIRAS2 | SID442885078 | 1.57 | 1.83 | 1.67
CPNE4 | SID442897090 | -0.228 | -0.344 | -0.466
RPSAP10 | SID442890121 | 1.24 | -0.0245 | 0.168
ZNF766 | SID442901922 | -1.22 | -0.96 | -0.765
PTPRO | SID442894217 | -0.134 | 0.000223 | 0.0147
NUP210P1 | SID442903692 | -1.52 | -1.35 | -1.21
HTR1B | SID442893109 | 0.919 | -0.654 | -0.00348
CHAF1B | SID442892001 | 0.615 | -0.0913 | 0.138
HEXA-AS1 | SID442886427 | 0.819 | 1.05 | 1.62
LOC387764 (retired record) | SID442883472 | 2.71 (active) | 2.41 | 3.38
SERTAD4BP | SID442901367 | -0.0903 | -1.07 | -1.51
SMURF1 | SID442897758 | -0.254 | 0.12 | -1.13
ZNF321P | SID442891953 | 0.231 | 0.372 | 0.0745
RP1 | SID442887217 | 0.73 | 1.02 | 1.13
MIP | SID442897119 | -0.165 | -0.833 | -0.0503
ANKLE1 | SID442888260 | 0.771 | 0.751 | 0.741
SLC22A10 | SID442888987 | 0.709 | 0.47 | 0.71
GMIP | SID442892731 | -0.213 | 0.729 | -0.124
FAM153A | SID442886608 | 1.37 | 0.544 | 1.41
CHORDC1 | SID442886369 | 4.58 | -1.65 | 0.608
FRG1BP | SID442892817 | -0.162 | 0.527 | -0.00323
HMGB1P15 | SID442891023 | -0.429 | 0.652 | 0.796
DHX16 | SID442891993 | 0.281 | -0.383 | 0.767
NT5DC3 | SID442899663 | -1.69 | -0.488 | 0.226
LOC442565 (retired record) | SID442902705 | -1.75 | -1.44 | -0.205
ITGA11 | SID442902532 | -0.619 | -1.06 | -1.61
ARMC8 | SID442892180 | -0.0285 | 0.563 | 0.0628
